# Publication PMC12431657, “Discovery and mechanistic insights of dibenzoylmethane as a broad spectrum inhibitor of coronavirus” (PLOS Pathogens, 2025)
# Counter-ions that a name gives are not always drawn. Like-named read-outs stand apart in the source and are kept apart here. In all, about 3,300 compounds went through this assay and about 95 (3%) showed an effect of 50% or more. The list shows a part of the results.
# Test system: HCoV-229E
# Design: species or system Huh-7; HTS, protection from HCoV-229E induced cell death, luminescent cell viability (CellCounting-Lite 2.0), inhibition rate
# Conditions: 24 h post infection, 1 h compound pre-incubation, 10 µM, inhibitor
SMILES,"229E Inhibition rate (229E Inhibition rate, 24 h) [%]",229E Inhibition rate [%]
C[C@H](CCC(=O)NCCS(=O)(=O)O)[C@H]1CC[C@H]2[C@@H]3[C@H](O)C[C@@H]4C[C@H](O)CC[C@]4(C)[C@H]3CC[C@]12C [Taurochenodeoxycholic acid (sodium)],6.6,–
COc1ccc2c(c1OC)CN(C)c1c-2ccc2cc3c(cc12)OCO3 [Dihydrochelerythrine],–,29
O=C(O)C1CCN1 (stereo not shown) [Azetidine-2-carboxylic acid],–,9.8
CCC/C=C/C=O [Trans-2-Hexenal],–,10.5
CCCCC/C=C\CCCCCCc1cc(=O)c2ccccc2n1C [Evocarpine],–,12.8
NCCCN(CCCCNCCCNC(=O)CCc1ccc(O)c(O)c1)C(=O)CCc1ccc(O)c(O)c1 [Kukoamine B],–,16.1
CCCCC/C=C\C/C=C\CCCCCCCC(=O)OC [Methyl linoleate],–,40.2
CCCCCCCCCCCCCC(=O)OC [Methyl myristate],–,9.7
CC(=O)Oc1cccc2c1C(=O)c1c(OC(C)=O)cc(C(=O)O)cc1C2=O [Diacerein],–,6.1
C[N+](C)(C)CCOP(=O)(O)OP(=O)([O-])OC[C@H]1O[C@@H](n2ccc(N)nc2=O)[C@H](O)[C@@H]1O [Citicoline],8.9,–
C=CCCN1C[C@@H]2C[C@H](C1)c1cccc(=O)n1C2 [Rhombifoline],–,43.2
NCCOP(=O)(O)O [Phosphorylethanolamine],–,14.4
C=C(C)C(=O)O[C@H]1CC2=C[C@@H](C/C(C)=C/[C@H]3OC(=O)C(=C)[C@H]13)OC2=O [Deoxyelephantopin],–,6.2
COc1c(-c2ccccc2)oc2cc(O)cc(O)c2c1=O [3-O-Methylgalangin],–,14
CC(=O)OCC[N+](C)(C)C [Acetylcholine (iodide)],12,–
CC(=O)N[C@@H](CCC(=O)O)C(=O)O [N-Acetyl-L-glutamic acid],–,4
OC[C@H]1O[C@@H](Oc2cc3c(O)cc(O)cc3[o+]c2-c2cc(O)c(O)c(O)c2)[C@H](O)[C@@H](O)[C@@H]1O [Delphinidin 3-glucoside (chloride)],–,19.1
O=c1c(-c2ccccc2)coc2ccccc12 [Isoflavone],–,0
CSC(=O)OCC1=C[C@H](O)[C@@H]2C(C(=O)O)=CO[C@@H](O[C@@H]3O[C@H](CO)[C@@H](O)[C@H](O)[C@H]3O)[C@H]12 [Paederosidic acid],–,21.2
C/C1=C\[C@@H]2[C@H](C/C=C(/CO)[C@@H](O)[C@@H]3[C@@H](O)[C@@H](C)C[C@]3(O)C1=O)C2(C)C [17-Hydroxyisolathyrol],–,13.4

# Single records, from the list above. Order of values: 229E Inhibition rate (229E Inhibition rate, 24 h) [%] | 229E Inhibition rate [%]
# `C[C@H](CCC(=O)NCCS(=O)(=O)O)[C@H]1CC[C@H]2[C@@H]3[C@H](O)C[C@@H]4C[C@H](O)CC[C@]4(C)[C@H]3CC[C@]12C` [Taurochenodeoxycholic acid (sodium)] reads 6.6 | –
# `CC(=O)N[C@@H](CCC(=O)O)C(=O)O` [N-Acetyl-L-glutamic acid] reads – | 4

# (listing goes on)

SMILES,"229E Inhibition rate (229E Inhibition rate, 24 h) [%]",229E Inhibition rate [%]
COc1ccc([C@@H]2CC(=O)c3c(O)cc(O[C@@H]4O[C@H](CO)[C@@H](O)[C@H](O)[C@H]4O)cc3O2)cc1 [Isosakuranin],–,16.6
C[C@@H]1C(=O)O[C@H](C)[C@H]1C[C@@H](O)[C@](C)(O)[C@H]1CC[C@@]2(O)C3=CC(=O)[C@@H]4C[C@@H](O)[C@@H](O)C[C@]4(C)[C@H]3CC[C@]12C [Cyasterone],–,15.4
CC(C)=CCc1c(O)cc2oc3cc(O)c(O)c(CC=C(C)C)c3c(=O)c2c1O [Gamma-Mangostin],–,33.7
COc1cc2c3cc1Oc1c(OC)c(OC)cc4c1[C@@H](Cc1ccc(O)c(c1)Oc1ccc(cc1)C[C@@H]3N(C)CC2)N(C)CC4 [Berbamine (dihydrochloride)],4.5,–
COc1cc2c(O)c3c(c(-c4ccc5c(c4)OCO5)c2cc1OC)C(=O)OC3 [Diphyllin],–,34.5
C[C@H]1O[C@@H](O[C@H]2CC[C@@]3(C)[C@@H](CC[C@]4(C)[C@@H]3C=C[C@]35OC[C@@]6(CCC(C)(C)C[C@H]63)[C@@H](O)C[C@]54C)[C@]2(C)CO)[C@H](O)[C@@H](O[C@@H]2O[C@H](CO)[C@@H](O)[C@H](O)[C@H]2O)[C@H]1O [Saikosaponin A],–,10.5
COc1cc2c(cc1O)C[C@@H]1NCCc3cc(OC)c(O)c-2c31 [Norisoboldine],–,0
C[C@@]1(CO)C[C@@H](O)C[C@@]2(C)[C@@H]3CC[C@](C)([C@@H](O)CO)C=C3CC[C@H]12 [Kirenol],–,17.1
O=C1c2ccccc2-n2c1nc1ccccc1c2=O [Tryptanthrin],–,8.3
CO[C@@H]1[C@@H](OC(N)=O)[C@@H](O)[C@H](Oc2ccc3c(O)c(NC(=O)c4ccc(O)c(CC=C(C)C)c4)c(=O)oc3c2C)OC1(C)C [Novobiocin (sodium)],–,11.4
Cn1cncc1C[C@H](N)C(=O)O [3-Methyl-L-histidine],–,8.4
CC(=O)O[C@H]1C[C@@]2(O)[C@@H](OC(=O)c3ccccc3)[C@@H]3[C@]4(OC(C)=O)CO[C@@H]4C[C@H](O)[C@@]3(C)[C@@H](O)[C@H](OC(C)=O)C(=C1C)C2(C)C [9-Dihydro-13-acetylbaccatin III],–,13.2
CC[C@H](C)C(=O)O[C@H]1CCC=C2C=C[C@H](C)[C@H](CC[C@@H]3C[C@@H](O)CC(=O)O3)[C@H]21 [Mevastatin],–,13.2
COC(=O)c1ccccc1O[C@@H]1O[C@H](CO[C@@H]2OC[C@@H](O)[C@H](O)[C@H]2O)[C@@H](O)[C@H](O)[C@H]1O [Gaultherin],–,45.9
Cn1c(=O)[nH]c2[nH]cnc2c1=O [1-Methylxanthine],–,11.6
CN1CCC=C(C(=O)O)C1 [Arecaidine],7.9,–
c1cncc(C2=NCCC2)c1 [Myosmine],–,12.6
O=C(O)/C=C\c1cc2ccoc2cc1O[C@@H]1O[C@H](CO)[C@@H](O)[C@H](O)[C@H]1O [Psoralenoside],–,11.6
O=C(O)C(O)c1ccccc1 (stereo not shown) [Mandelic acid],–,13.1
C[C@H](CCC(=O)O)[C@H]1CC[C@H]2[C@@H]3[C@H](O)C[C@@H]4C[C@H](O)CC[C@]4(C)[C@H]3CC[C@]12C [Chenodeoxycholic Acid],–,10.9
